Assay results published in PMC9399059.
These are yes or no findings as the source states them, for the method shown. Binding seen in cells or lysates may run through a third protein. Some results given as binding are weak or reduced against the parent protein; the word gives no strength.

By UniProt entry, the sequences of proteins in these tests, tags left out. Residues count along the entry.
UniProt P97571: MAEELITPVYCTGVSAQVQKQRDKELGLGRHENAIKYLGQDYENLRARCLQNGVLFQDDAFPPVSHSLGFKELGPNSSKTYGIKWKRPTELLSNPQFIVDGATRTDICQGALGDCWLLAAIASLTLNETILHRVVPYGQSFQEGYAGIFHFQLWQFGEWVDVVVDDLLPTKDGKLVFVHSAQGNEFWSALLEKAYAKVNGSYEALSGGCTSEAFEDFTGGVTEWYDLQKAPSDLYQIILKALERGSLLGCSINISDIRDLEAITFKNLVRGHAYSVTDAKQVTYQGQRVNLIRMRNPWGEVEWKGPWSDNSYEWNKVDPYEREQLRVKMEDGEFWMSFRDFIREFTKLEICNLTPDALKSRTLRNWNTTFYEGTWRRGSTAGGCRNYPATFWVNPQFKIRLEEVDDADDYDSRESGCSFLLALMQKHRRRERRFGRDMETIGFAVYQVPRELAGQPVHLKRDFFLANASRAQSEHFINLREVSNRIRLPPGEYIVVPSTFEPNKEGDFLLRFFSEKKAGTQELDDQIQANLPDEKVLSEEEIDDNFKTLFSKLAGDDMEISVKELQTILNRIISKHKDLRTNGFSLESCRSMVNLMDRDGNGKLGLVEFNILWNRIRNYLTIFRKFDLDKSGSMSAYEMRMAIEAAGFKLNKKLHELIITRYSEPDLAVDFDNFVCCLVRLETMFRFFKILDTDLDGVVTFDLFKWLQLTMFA
UniProt P15999, residues 44-553: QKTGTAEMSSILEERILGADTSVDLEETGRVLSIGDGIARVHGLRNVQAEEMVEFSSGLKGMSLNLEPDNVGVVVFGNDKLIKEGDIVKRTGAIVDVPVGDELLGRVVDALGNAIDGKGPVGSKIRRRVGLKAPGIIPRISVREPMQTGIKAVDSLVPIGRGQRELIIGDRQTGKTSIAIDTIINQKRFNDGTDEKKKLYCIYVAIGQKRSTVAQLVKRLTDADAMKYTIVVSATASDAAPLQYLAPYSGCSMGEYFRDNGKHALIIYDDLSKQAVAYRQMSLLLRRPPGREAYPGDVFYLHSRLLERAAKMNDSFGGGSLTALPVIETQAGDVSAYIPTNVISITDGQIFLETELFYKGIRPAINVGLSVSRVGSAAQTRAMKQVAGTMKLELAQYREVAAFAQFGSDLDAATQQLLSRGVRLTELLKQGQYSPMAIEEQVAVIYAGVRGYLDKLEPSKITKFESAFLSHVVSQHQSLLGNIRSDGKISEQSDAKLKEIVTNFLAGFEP

Experiments:
[1] = target: calpain-1 (rat (endogenous in NRCMs)) (UniProt P97571); assay: co-IP; anti-calpain-1 or anti-ATP5A1 antibody (control anti-IgG) on Protein A/G magnetic beads, NP40 lysates of CVB3-treated NRCMs, overnight 4 °C; western blot
[2] = target: ATP synthase-α (ATP5A1) (rat (endogenous in NRCMs)) (UniProt P15999); assay: as above

Row | binding [1] | binding [2] | Substance
1 | binds |  | ATP synthase-α (ATP5A1) (from UniProt P15999 44-553)
2 |  | binds | calpain-1 (from UniProt P97571 1-713) (enzyme)
